The test deals with P388 leukemia ip, CD2F1 mice, survival T/C. The test is described as follows: NCI In Vivo Anticancer Drug Screen. Data for tumor model P388 Leukemia (intraperitoneal) in CD2F1 (CDF1) mice. To be noted: T/C endpoint: median survival time, higher T/C = longer survival.
Where [1] appears, read: dose: 200.0 mg/kg/injection, schedule: Q01DX009 (ip), vehicle: Klucel (hydroxypropylcellulose) (HPC).
The mark [2] stands for this setting: dose: 240.0 mg/kg/injection, schedule: Q01DX005 (ip), vehicle: Klucel (hydroxypropylcellulose) (HPC).
The mark [3] stands for this setting: dose: 50.0 mg/kg/injection, schedule: Q01DX009 (ip), vehicle: saline.
Setting [4] is: dose: 100.0 mg/kg/injection, schedule: Q01DX009 (ip), vehicle: saline.
[5] abbreviates: dose: 200.0 mg/kg/injection, schedule: Q01DX009 (ip), vehicle: saline.
Where [6] appears, read: dose: 240.0 mg/kg/injection, schedule: Q01DX005 (ip), vehicle: saline with Tween-80.

The list is a part of this screen's results and no random one: it gathers tests that were run many times, whatever their T/C, doses with no T/C, and many T/C values between a quarter and a half above the control. Other doses and runs of a compound stand elsewhere. T/C gives the treated animals as a percentage of the vehicle group. Some doses have a count of surviving animals in place of a T/C: the source holds a T/C of zero for them, seemingly a mark for toxic or unscored doses. Some survivor counts are full or nearly so, which does not show that the dose was tolerated: survival well below the control is almost never listed, so the zero probably covers shortened survival too. Survivors were counted at the toxicity check, usually on the fifth day, unless a day is given; later deaths do not show. Schedules are NCI's codes, read here as Q, the interval in days (D) or hours (H), X, the number of doses. For survival time, this PubChem deposit counts one and a half times the control or more as active, and values a quarter to a half above the control carry no call in these data; other NCI protocols may use other cut-offs. Some entries hold several experiments; the results are listed from low to high. Some T/C values are followed by the survivors on the day toxicity was checked, most often the fifth; where none is given, no animal had died by that day.

With `[O-][n+]1c(Cl)c(Cl)[n+]([O-])c2[nH]c(C(F)(F)F)nc21`, for the setting “dose: 400.0 mg/kg/injection, schedule: Q01DX005 (ip), vehicle: saline with Tween-80”, the survivor count is recorded as 3 of 6.

Take `CCCCCN(CCCCC)CC(O)c1c(OC)ccc2ccccc12` (stereo not drawn): the survivor count is listed as 1 of 6 (dose: 100.0 mg/kg/injection, schedule: Q01DX009 (ip), vehicle: Klucel (hydroxypropylcellulose) (HPC)); 0 of 6 under setting [1]; 0 of 6 (dose: 400.0 mg/kg/injection, schedule: Q01DX009 (ip), vehicle: Klucel (hydroxypropylcellulose) (HPC)).

Consider `COc1c2c(c(OC)c3c1C(=O)C(=O)C=C3O)OCO2`, for which the survivor count under setting [2] is reported as 0 of 6.

As for `CCCC(=O)OC1C=C2N3C(=O)C4CC56C(=CC(OC(C)=O)C7OC75)N4C(=O)C3CC26C2OC12` (stereo not drawn), the survivor count is 5 of 6 (dose: 8.0 mg/kg/injection, schedule: Q01DX005 (ip), vehicle: Klucel (hydroxypropylcellulose) (HPC)); 1 of 6 (dose: 16.0 mg/kg/injection, schedule: Q01DX005 (ip), vehicle: Klucel (hydroxypropylcellulose) (HPC)); 0 of 6 (dose: 32.0 mg/kg/injection, schedule: Q01DX005 (ip), vehicle: Klucel (hydroxypropylcellulose) (HPC)).

As to `Cc1cc(O)c2c(c1)C(=O)c1c(c(O)cc(O)c1-c1c(O)cc(O)c3c1C(=O)c1cc(C)cc(O)c1C3=O)C2=O`, for the setting “dose: 50.0 mg/kg/injection, schedule: Q01DX005 (ip), vehicle: Klucel (hydroxypropylcellulose) (HPC)”, the survivor count is 6 of 6.

For the compound `Cc1nc2cc(N(C)C)ccc2c(Cl)c1C(N)=O`, the survivor count runs as follows: (dose: 120.0 mg/kg/injection, schedule: Q01DX005 (ip), vehicle: Klucel (hydroxypropylcellulose) (HPC)) 2 of 6; under setting [2], 0 of 6.

As for `CNC(=O)OCc1c(COC(=O)NC)c(-c2ccc(Cl)cc2)n(C)c1-c1ccccc1`, the T/C by setting is: (dose: 3.13 mg/kg/injection, schedule: Q01DX009 (ip), vehicle: distilled water + Tween-80) 141 % of control; (dose: 6.25 mg/kg/injection, schedule: Q01DX009 (ip), vehicle: distilled water + Tween-80) 140 % of control; (dose: 12.5 mg/kg/injection, schedule: Q01DX009 (ip), vehicle: distilled water + Tween-80) 142 % of control; (dose: 50.0 mg/kg/injection, schedule: Q01DX009 (ip), vehicle: distilled water + Tween-80) 125 % of control. Moreover, the survivor count by setting is: (dose: 100.0 mg/kg/injection, schedule: Q01DX009 (ip), vehicle: distilled water + Tween-80) 5 of 6; (dose: 200.0 mg/kg/injection, schedule: Q01DX009 (ip), vehicle: distilled water + Tween-80) 0 of 6.

As to `O=C(COc1ccc(Cl)cc1)OC(=O)COc1ccc(Cl)cc1`, the survivor count (dose: 400.0 mg/kg/injection, schedule: Q01DX009 (ip), vehicle: other) is given as 5 of 6.

Take `N#[N+]N=c1c(=NN=[N-])c(=O)c2ccccc2c1=O`: the T/C (dose: 25.0 mg/kg/injection, schedule: Q01DX001 (ip), vehicle: saline with Tween-80) is 137 % of control [5 of 6 alive]. Also, the survivor count (dose: 50.0 mg/kg/injection, schedule: Q01DX001 (ip), vehicle: saline with Tween-80) is on record as 0 of 6; the survivor count (dose: 100.0 mg/kg/injection, schedule: Q01DX001 (ip), vehicle: saline with Tween-80) is 0 of 6; the survivor count (dose: 200.0 mg/kg/injection, schedule: Q01DX001 (ip), vehicle: saline with Tween-80) was 0 of 6.

Regarding `CC(C)(C)OC(=O)O/N=C(\C#N)c1ccccc1`, the survivor count (dose: 100.0 mg/kg/injection, schedule: Q01DX009 (ip), vehicle: saline with Tween-80) is recorded as 6 of 6.

Turning to `CC(=O)SCC1C(=O)CC(C)(C)CC1=O`, the survivor count (dose: 100.0 mg/kg/injection, schedule: Q04DX003 (ip), vehicle: Klucel (hydroxypropylcellulose) (HPC)) is reported as 0 of 6 and the survivor count (dose: 400.0 mg/kg/injection, schedule: Q04DX003 (ip), vehicle: Klucel (hydroxypropylcellulose) (HPC)) is 0 of 6.

Take `O.O.[Cl][Pt+2][Cl].[NH-]C1CC2CCC1C2.[NH-]C1CC2CCC1C2` (stereo not drawn): the T/C by setting is: (dose: 22.0 mg/kg/injection, schedule: Q04DX003 (ip), vehicle: saline with Tween-80) 139 % of control; (dose: 75.0 mg/kg/injection, schedule: Q04DX003 (ip), vehicle: saline with Tween-80) 148 % of control.

For the compound `N[C@@H](C(=O)O)[C@@H]1C=CCCC1`, the survivor count (dose: 400.0 mg/kg/injection, schedule: Q04DX002 (ip), vehicle: saline) was 0 of 6.

Consider `O=C1CN(CCN2CCCCC2)CC(=O)N2CCCCN12`, for which the survivor count (dose: 200.0 mg/kg/injection, schedule: Q01DX005 (ip), vehicle: saline with Tween-80) is recorded as 2 of 5.

For the compound `O/N=C/C=N/O.O/N=C/C=N/O.[Ni]`, the survivor count is, setting by setting: (dose: 12.5 mg/kg/injection, schedule: Q01DX009 (ip), vehicle: saline) 0 of 6; (dose: 25.0 mg/kg/injection, schedule: Q01DX009 (ip), vehicle: saline) 2 of 6; under setting [3], 0 of 6; under setting [4], 0 of 6; under setting [5], 0 of 6.

On to `Cc1nc(N)nc(N)c1N1CCN(c2ccc(C(=O)NC(CCC(=O)O)C(=O)O)cc2)CC1` (stereo not drawn), for which the T/C (dose: 3.12 mg/kg/injection, schedule: Q01DX005 (ip), vehicle: distilled water + Tween-80) is 132 % of control; the T/C (dose: 3.12 mg/kg/injection, schedule: Q01DX005 (ip), vehicle: water) is 125 % of control; the T/C (dose: 6.25 mg/kg/injection, schedule: Q01DX005 (ip), vehicle: distilled water + Tween-80) is 137 % of control; the T/C (dose: 6.25 mg/kg/injection, schedule: Q01DX005 (ip), vehicle: water) was 131 % of control. The survivor count (dose: 50.0 mg/kg/injection, schedule: Q01DX005 (ip), vehicle: distilled water + Tween-80) is 6 of 6.

Turning to `CCCCCCCC[As](CCCCCCCC)SC1OC(COC(C)=O)C(OC(C)=O)C(OC(C)=O)C1OC(C)=O` (stereo not drawn), the survivor count under setting [1] is 3 of 6.

Turning to `C[C@@]1(CO)[C@H](O)CC[C@@]2(C)[C@H]1CC[C@H]1C[C@@H]3C[C@@]12CC[C@@]3(O)COC(=O)CN`, the T/C was 130 % of control (dose: 20.0 mg/kg/injection, schedule: Q03HX027 (ip), vehicle: saline + alcohol); 131 % of control under setting [3]; 127 % of control (dose: 60.0 mg/kg/injection, schedule: Q01DX009 (ip), vehicle: saline + alcohol); 140 % of control under setting [4]; 134 and 135 % of control under setting [5]. Also, the survivor count by setting is: (dose: 80.0 mg/kg/injection, schedule: Q03HX027 (ip), vehicle: saline + alcohol) 2 of 6; (dose: 240.0 mg/kg/injection, schedule: Q01DX009 (ip), vehicle: saline + alcohol) 0 of 6.

On to `CCC[CH2][Sn]1([CH2]CCC)[O]C2C(OC)OC3COC(c4ccccc4)OC3C2[O]1` (stereo not drawn), for which the survivor count by setting is: (dose: 100.0 mg/kg/injection, schedule: Q04DX003 (ip), vehicle: suspension in saline) 5 of 6; (dose: 200.0 mg/kg/injection, schedule: Q04DX003 (ip), vehicle: suspension in saline) 1 of 6; (dose: 400.0 mg/kg/injection, schedule: Q04DX003 (ip), vehicle: suspension in saline) 0 of 6.

Consider `c1ccc(N=P(c2ccccc2)(c2ccccc2)c2ccccc2)cc1`, for which, where the note is “dose: 200.0 mg/kg/injection, schedule: Q01DX009 (ip), vehicle: saline with Tween-80”, the survivor count was 0 of 6.

Consider `CC(=O)C(=Cc1ccc(C=C(C(C)=O)C(C)=O)cc1)C(C)=O`, for which the survivor count under setting [6] is recorded as 3 of 6.

Regarding `CCOC(=O)C(Br)CN1C(=O)c2ccccc2C1=O` (stereo not drawn), under setting [6], the T/C is 132 % of control.

The values are drawn from PubChem BioAssay AID330 (DTP/NCI, 2004).
